Experimental data published in patent US10307380B1, “Composition and method for transdermal lidocaine delivery” (priority 2014, dated 2019).

Conditions: after 2 months accelerated stability; Barex pouch

CCN(CC)CC(=O)Nc1c(C)cccc1C [Lidocaine, lidocaine base]
absorption of drug onto the pouch: does not absorb onto the pouch
stability of drug in the pouched units: remains perfectly stable
